Results are given in words; binding and its absence hold for the method and conditions named. Binding seen in cells or lysates may run through a third protein. A result given as binding can be weak or reduced; the word gives no strength. Values belong to the binder of their own block, whether it stands above or below them.
Biological target: E-cadherin (human (endogenous in HaCaT))
Test: co-IP

- binding: binds
B1: desmocollin 3 (protein, UniProt Q14574 136-896)
chain: RWAPIPCSMQENSLGPFPLFLQQVESDAAQNYTVFYSISGRGVDKEPLNLFYIERDTGNLFCTRPVDREEYDVFDLIAYASTADGYSADLPLPLPIRVEDENDNHPVFTEAIYNFEVLESSRPGTTVGVVCATDRDEPDTMHTRLKYSILQQTPRSPGLFSVHPSTGVITTVSHYLDREVVDKYSLIMKVQDMDGQFFGLIGTSTCIITVTDSNDNAPTFRQNAYEAFVEENAFNVEILRIPIEDKDLINTANWRVNFTILKGNENGHFKISTDKETNEGVLSVVKPLNYEENRQVNLEIGVNNEAPFARDIPRVTALNRALVTVHVRDLDEGPECTPAAQYVRIKENLAVGSKINGYKAYDPENRNGNGLRYKKLHDPKGWITIDEISGSIITSKILDREVETPKNELYNITVLAIDKDDRSCTGTLAVNIEDVNDNPPEILQEYVVICKPKMGYTDILAVDPDEPVHGAPFYFSLPNTSPEISRLWSLTKVNDTAARLSYQKNAGFQEYTIPITVKDRAGQAATKLLRVNLCECTHPTQCRATSRSTGVILGKWAILAILLGIALLFSVLLTLVCGVFGATKGKRFPEDLAQQNLIISNTEAPGDDRVCSANGFMTQTTNNSSQGFCGTMGSGMKNGGQETIEMMKGGNQTLESCRGAGHHHTLDSCRGGHTEVDNCRYTYSEWHSFTQPRLGEKLHRCNQNEDRMPSQDYVLTYNYEGRGSPAGSVGCCSEKQEEDGLDFLNNLEPKFITLAEACTKR

- binding: binds
B2: desmoglein 3 (protein, UniProt P32926 50-999)
chain: EWVKFAKPCREGEDNSKRNPIAKITSDYQATQKITYRISGVGIDQPPFGIFVVDKNTGDINITAIVDREETPSFLITCRALNAQGLDVEKPLILTVKILDINDNPPVFSQQIFMGEIEENSASNSLVMILNATDADEPNHLNSKIAFKIVSQEPAGTPMFLLSRNTGEVRTLTNSLDREQASSYRLVVSGADKDGEGLSTQCECNIKVKDVNDNFPMFRDSQYSARIEENILSSELLRFQVTDLDEEYTDNWLAVYFFTSGNEGNWFEIQTDPRTNEGILKVVKALDYEQLQSVKLSIAVKNKAEFHQSVISRYRVQSTPVTIQVINVREGIAFRPASKTFTVQKGISSKKLVDYILGTYQAIDEDTNKAASNVKYVMGRNDGGYLMIDSKTAEIKFVKNMNRDSTFIVNKTITAEVLAIDEYTGKTSTGTVYVRVPDFNDNCPTAVLEKDAVCSSSPSVVVSARTLNNRYTGPYTFALEDQPVKLPAVWSITTLNATSALLRAQEQIPPGVYHISLVLTDSQNNRCEMPRSLTLEVCQCDNRGICGTSYPTTSPGTRYGRPHSGRLGPAAIGLLLLGLLLLLLAPLLLLTCDCGAGSTGGVTGGFIPVPDGSEGTIHQWGIEGAHPEDKEITNICVPPVTANGADFMESSEVCTNTYARGTAVEGTSGMEMTTKLGAATESGGAAGFATGTVSGAASGFGAATGVGICSSGQSGTMRTRHSTGGTNKDYADGAISMNFLDSYFSQKAFACAEEDDGQEANDCLLIYDNEGADATGSPVGSVGCCSFIADDLDDSFLDSLGPKFKKLAEISLGVDGEGKEVQPPSKDSGYGIESCGHPIEVQQTGFVKCQTLSGSQGASALSTSGSVQPAVSIPDPLQHGNYLVTETYSASGSLVQPSTAGFDPLLTQNVIVTERVICPISSVPGNLAGPTQLRGSHTMLCTEDPCSRLI

— publication doi:10.1101/2020.04.06.027185
